Measurements reported in PubChem BioAssay AID743121 (NCATS, 2013)

Purpose: 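Partners whose loss is lethal together with topoisomerase I blockade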 (primary screen)
Cells: MDA-MB-231 cells, a human breast cancer line
Knock-down reagent: single siRNA against human genes, 20 nM siRNA (0.8 pmol per well)
Time to read-out: 120 h (drug added 48 h after transfection, read 72 h later)
Challenge: camptothecin 20 nM (about EC30) for 72 h; vehicle 0.1% DMSO in parallel plates
Measured: 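CellTiter-Glo ATP signal, scaled to control siRNA as percent viability; sensitisation given as log2 of untreated divided by camptothecin-treated viability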
Scale: log2 vehicle/camptothecin viability: higher = stronger sensitisation to camptothecin; viability with camptothecin and viability without drug: higher = more viable cells
Call rule: 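Each gene scored by redundant siRNA activity (RSA) over its individual siRNA ratios; a gene is called active at p < 0.001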
In all, the deposit lists about 26,000 reagents; below is a random part of them. 167 of all reagents (0.63%) count as active. 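Calls are per gene from RSA p-values that are not deposited; an individual active-marked siRNA can sensitise only weakly.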 The numbers tell different reagents against one gene apart.

| gene symbol | reagent | log2 vehicle/camptothecin viability | viability with camptothecin (% of control) | viability without drug (% of control) | call |
| --- | --- | --- | --- | --- | --- |
| ADGRE2 (adhesion G protein-coupled receptor E2) | 1 | -0.296 | 97.5 | 79.4 | inactive |
| ADGRE2 (adhesion G protein-coupled receptor E2) | 2 | -0.0716 | 86 | 81.9 | inactive |
| ADGRE2 (adhesion G protein-coupled receptor E2) | 3 | 0.061 | 36.3 | 37.9 | inactive |
| ADGRE2 (adhesion G protein-coupled receptor E2) | 4 | -0.331 | 84.8 | 67.4 | inactive |
| TFDP1 (transcription factor Dp-1) | 1 | 0.043 | 100 | 103 | inactive |
| TFDP1 (transcription factor Dp-1) | 2 | 0.0663 | 59.1 | 61.9 | inactive |
| TFDP1 (transcription factor Dp-1) | 3 | 0.0728 | 93.3 | 98.1 | inactive |
| SOCS4 (suppressor of cytokine signaling 4) | 1 | -0.105 | 110 | 103 | inactive |
| SOCS4 (suppressor of cytokine signaling 4) | 2 | 0.638 | 37.9 | 59 | inactive |
| SOCS4 (suppressor of cytokine signaling 4) | 3 | -0.235 | 55.9 | 47.5 | inactive |
| SOCS4 (suppressor of cytokine signaling 4) | 4 | -0.0153 | 95.9 | 94.9 | inactive |
| ITPR1 (inositol 1,4,5-trisphosphate receptor type 1) | 1 | 0.0958 | 31.4 | 33.5 | inactive |
| ITPR1 (inositol 1,4,5-trisphosphate receptor type 1) | 2 | -0.207 | 90.5 | 78.4 | inactive |
| ITPR1 (inositol 1,4,5-trisphosphate receptor type 1) | 3 | 0.274 | 64.7 | 78.2 | inactive |
| ITPR1 (inositol 1,4,5-trisphosphate receptor type 1) | 4 | -0.0693 | 81 | 77.2 | inactive |
| GRIA1 (glutamate ionotropic receptor AMPA type subunit 1) | 1 | 0.0831 | 72.1 | 76.4 | inactive |
| GRIA1 (glutamate ionotropic receptor AMPA type subunit 1) | 2 | 0.00576 | 98.1 | 98.5 | inactive |
| GRIA1 (glutamate ionotropic receptor AMPA type subunit 1) | 3 | -0.225 | 107 | 91.4 | inactive |
| GRIA1 (glutamate ionotropic receptor AMPA type subunit 1) | 4 | -0.557 | 80.9 | 55 | inactive |
| RAB35 (RAB35, member RAS oncogene family) | 1 | -0.378 | 71.8 | 55.2 | inactive |
| RAB35 (RAB35, member RAS oncogene family) | 2 | -0.411 | 55.1 | 41.4 | inactive |
| RAB35 (RAB35, member RAS oncogene family) | 3 | -0.121 | 93.7 | 86.2 | inactive |
| OR10J1 (olfactory receptor family 10 subfamily J member 1) | 1 | 0.561 | 30 | 44.3 | inactive |
| OR10J1 (olfactory receptor family 10 subfamily J member 1) | 2 | -0.481 | 98.7 | 70.8 | inactive |
| OR10J1 (olfactory receptor family 10 subfamily J member 1) | 3 | -0.0218 | 104 | 103 | inactive |
| OR10J1 (olfactory receptor family 10 subfamily J member 1) | 4 | -0.677 | 89.3 | 55.9 | inactive |
| OR4C3 (olfactory receptor family 4 subfamily C member 3) | 1 | -0.225 | 99.4 | 85 | inactive |
| OR4C3 (olfactory receptor family 4 subfamily C member 3) | 2 | -0.379 | 67.6 | 52 | inactive |
| OR4C3 (olfactory receptor family 4 subfamily C member 3) | 3 | 0.106 | 76.6 | 82.5 | inactive |
| OR4C3 (olfactory receptor family 4 subfamily C member 3) | 4 | -0.437 | 120 | 88.6 | inactive |
| OPN5 (opsin 5) | 1 | -0.0277 | 95 | 93.2 | inactive |
| OPN5 (opsin 5) | 2 | -0.213 | 66.5 | 57.4 | inactive |
| OPN5 (opsin 5) | 3 | -0.405 | 71.9 | 54.3 | inactive |
| OPN5 (opsin 5) | 4 | -0.075 | 74.9 | 71.1 | inactive |
| CXCL5 (C-X-C motif chemokine ligand 5) | 1 | -0.0576 | 94.7 | 91 | inactive |
| CXCL5 (C-X-C motif chemokine ligand 5) | 2 | -0.063 | 93.9 | 89.9 | inactive |
| CXCL5 (C-X-C motif chemokine ligand 5) | 3 | -0.248 | 71.2 | 60 | inactive |
| FBXL8 (F-box and leucine rich repeat protein 8) | 1 | 0.0151 | 61 | 61.6 | inactive |
| FBXL8 (F-box and leucine rich repeat protein 8) | 2 | -0.0896 | 45.4 | 42.6 | inactive |
| FBXL8 (F-box and leucine rich repeat protein 8) | 3 | 0.0142 | 64.9 | 65.5 | inactive |
| KLRG2 (killer cell lectin like receptor G2) | 1 | -0.0557 | 97.2 | 93.5 | inactive |
| KLRG2 (killer cell lectin like receptor G2) | 2 | -0.169 | 115 | 102 | inactive |
| KLRG2 (killer cell lectin like receptor G2) | 3 | -0.129 | 103 | 93.8 | inactive |
| KLRG2 (killer cell lectin like receptor G2) | 4 | -0.38 | 60.9 | 46.8 | inactive |
| EDN3 (endothelin 3) | 1 | 0.0306 | 87.5 | 89.4 | inactive |
| EDN3 (endothelin 3) | 2 | 0.723 | 41.3 | 68.2 | inactive |
| EDN3 (endothelin 3) | 3 | 0.152 | 71.5 | 79.5 | inactive |
| EDN3 (endothelin 3) | 4 | 1.29 | 7.53 | 18.4 | inactive |

Laid out differently: entries from further up
OR10J1 (olfactory receptor family 10 subfamily J member 1) #3 | log2 vehicle/camptothecin viability = -0.0218; viability with camptothecin (% of control) = 104; viability without drug (% of control) = 103; call = inactive
OR10J1 (olfactory receptor family 10 subfamily J member 1) #4 | log2 vehicle/camptothecin viability = -0.677; viability with camptothecin (% of control) = 89.3; viability without drug (% of control) = 55.9; call = inactive
OR4C3 (olfactory receptor family 4 subfamily C member 3) #1 | log2 vehicle/camptothecin viability = -0.225; viability with camptothecin (% of control) = 99.4; viability without drug (% of control) = 85; call = inactive
OR4C3 (olfactory receptor family 4 subfamily C member 3) #2 | log2 vehicle/camptothecin viability = -0.379; viability with camptothecin (% of control) = 67.6; viability without drug (% of control) = 52; call = inactive
OR4C3 (olfactory receptor family 4 subfamily C member 3) #3 | log2 vehicle/camptothecin viability = 0.106; viability with camptothecin (% of control) = 76.6; viability without drug (% of control) = 82.5; call = inactive
OR4C3 (olfactory receptor family 4 subfamily C member 3) #4 | log2 vehicle/camptothecin viability = -0.437; viability with camptothecin (% of control) = 120; viability without drug (% of control) = 88.6; call = inactive
OPN5 (opsin 5) #1 | log2 vehicle/camptothecin viability = -0.0277; viability with camptothecin (% of control) = 95; viability without drug (% of control) = 93.2; call = inactive
OPN5 (opsin 5) #2 | log2 vehicle/camptothecin viability = -0.213; viability with camptothecin (% of control) = 66.5; viability without drug (% of control) = 57.4; call = inactive
